Measurements reported in PubChem BioAssay AID504791 (Drosophila RNAi Screening Center, 2011)
The screen tested about 23,000 reagents; this is an unselected part of those that have a named target and a result. In the full data, 199 (0.86%) got an active call. 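Plate-scaled ratios behind the calls are not deposited; printed light signals are raw; many rows marked increased or decreased are still called inactive.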 Reagents against one gene are numbered here. A plus sign joins genes that one reagent is predicted to hit.

Aim: 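Genes whose knock-down strengthens or weakens small-RNA reporter silencing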 (primary screen)
Cells: Drosophila S2-derived reporter cells
Reagents: long dsRNA against Drosophila genes, about 150-250 ng dsRNA per well (siRNA assay); about 80-120 ng (miRNA assay)
Duration: about 5 days (siRNA assay); about 4 days (miRNA assay)
Conditions: copper sulfate induction of reporters: 25 µM (siRNA assay); 200 mM stated (miRNA assay), 1-2 days before reading
Detection: 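Per-well ratio of Renilla over firefly light, expressed relative to that plate's average ratio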
Reading the numbers: siRNA reporter hit score: higher = 3 marks a strong hit with raised ratio; -3 a strong hit with lowered ratio
Hit rule: 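First-pass picks had plate-scaled ratios over 1.5 for the siRNA assay, over 1.6 for the miRNA assay, or under 0.6; two distinct dsRNAs had to score alike on retest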

no.	gene knocked down	reagent no.	siRNA reporter hit score	stable siRNA reporter change	miRNA reporter change	stable assay Renilla, run 1 (luminescence)	stable assay firefly, run 1 (luminescence)	outcome
1	Mlc1 (GeneID 43323)	1				6899	3.92e5	inactive
2	Tom70 (GeneID 34618)	1				5347	4.57e5	inactive
3	CG6900 (retired record) (GeneID 32868)	1				5959	3.72e5	inactive
4	CG33770 (GeneID 3772256)	1				8399	3.96e5	inactive
5	Frmd5 (GeneID 34398)	1				6638	3.40e5	inactive
6	CG32733 (retired record) + CG32797	1		reporter ratio lowered past the hit cutoff		5048	3.97e5	inactive
7	CG6424 (GeneID 37012)	1				8222	2.56e5	inactive
8	Chs2 (GeneID 40442)	1				7316	3.32e5	inactive
9	CG30269 (GeneID 37600)	1				6612	4.47e5	inactive
10	CG11342 (GeneID 38538)	1				5774	3.97e5	inactive
11	DAAM (GeneID 31075)	1				3456	3.26e5	inactive
12	cno (GeneID 40620)	1				5900	3.86e5	inactive
13	cno (GeneID 40620)	2	3			6607	2.49e5	inactive
14	cno (GeneID 40620)	3				5219	4.03e5	inactive
15	cno (GeneID 40620)	4			reporter ratio lowered past the hit cutoff			inactive
16	CG31142 (GeneID 251610)	1				4992	4.16e5	inactive
17	mdu (GeneID 32201)	1				4007	4.09e5	inactive
18	mdu (GeneID 32201)	2				2703	2.47e5	inactive
19	mdu (GeneID 32201)	3			reporter ratio lowered past the hit cutoff			inactive
20	Cdc50 (GeneID 32615)	1				4726	5.81e5	inactive
21	S-Lap5 (GeneID 36515)	1				6179	3.00e5	inactive
22	ATPsynD (GeneID 42291)	1				7711	3.88e5	inactive
23	CG12842 (retired record) (GeneID 35619)	1				6363	3.36e5	inactive
24	Or85a (GeneID 40991)	1				7196	5.03e5	inactive
25	MICU3 (GeneID 42357)	1				4875	3.60e5	inactive
26	MICU3 (GeneID 42357)	2				8074	2.78e5	inactive
27	tna (GeneID 39217)	1				4811	4.04e5	inactive
28	tna (GeneID 39217)	2				6447	4.01e5	inactive
29	tna (GeneID 39217)	3				3748	3.23e5	inactive
30	CG8320 + ATPCL	1				6394	3.74e5	inactive
31	CHES-1-like (GeneID 31678)	1				6259	3.07e5	inactive
32	CG33307 (GeneID 2768914)	1				5651	4.37e5	inactive
33	CG33155 + mRpL53	1				5438	4.47e5	inactive
34	CG8230 (GeneID 35897)	1				5710	2.96e5	inactive
35	bsk (GeneID 44801)	1				14540	4.53e5	inactive
36	t-Grip128 (GeneID 317930)	1				4962	3.72e5	inactive
37	CG44001 + CG33995	1				6063	3.79e5	inactive
38	CG44001 + CG33995	2				13079	4.63e5	inactive
39	Grip163 (GeneID 39365)	1				7178	3.79e5	inactive
40	CG42591 (GeneID 8674006)	1				4755	4.20e5	inactive
41	CG3631 (GeneID 41797)	1				9029	5.92e5	inactive
42	mRpS2 (GeneID 33688)	1				11051	7.52e5	inactive
43	eag (GeneID 32428)	1				4536	3.61e5	inactive
44	eag (GeneID 32428)	2				4435	3.14e5	inactive
45	lectin-29Ca (GeneID 53547)	1				6947	3.60e5	inactive
46	Ir94d (GeneID 7354412)	1				10026	5.21e5	inactive
47	CG40341 (retired record) (GeneID 3885621)	1				5399	3.59e5	inactive
48	CG40341 (retired record) (GeneID 3885621)	2				6019	3.67e5	inactive
49	CG11597 (GeneID 39337)	1				8586	5.02e5	inactive
50	Cyt-c-p (GeneID 34996)	1				7419	5.07e5	inactive
51	Gr98d (GeneID 43309)	1				5779	4.49e5	inactive
52	eIF4EHP (GeneID 326255)	1				3399	2.66e5	inactive
53	eIF4EHP (GeneID 326255)	2				7190	3.40e5	inactive
54	CG30116 (GeneID 37126)	1				8527	2.34e5	inactive
55	CG30116 (GeneID 37126)	2				5376	3.56e5	inactive
56	CG15754 (GeneID 32307)	1				4516	3.07e5	inactive
57	CG31787 (GeneID 318941)	1				5823	3.17e5	inactive
58	CG1246 (GeneID 38330)	1				6666	3.55e5	inactive
59	Gr93b (GeneID 117472)	1				9614	6.28e5	inactive
60	CG34263 (GeneID 5740488)	1				4772	4.70e5	inactive
61	Pglym78 (GeneID 43447)	1				7347	4.64e5	inactive
62	mib2 (GeneID 35170)	1				12817	1.52e6	inactive
63	mute (GeneID 2768848)	1				6870	3.71e5	inactive
64	mute (GeneID 2768848)	2			reporter ratio raised past the hit cutoff	6250	5.45e5	inactive
65	Gem2 (GeneID 40087)	1				7258	2.20e5	inactive
66	Sara (GeneID 44263)	1				7026	3.53e5	inactive
67	CG6574 (GeneID 41308)	1				7559	3.90e5	inactive
68	CG4465 (GeneID 42374)	1				7442	3.43e5	inactive
69	CG5793 (GeneID 42505)	1				7188	4.04e5	inactive
70	CG31493 (GeneID 318765)	1				8307	4.23e5	inactive
71	Cpr31A (GeneID 2768918)	1				7040	4.76e5	inactive
72	CG30323 (GeneID 246539)	1				5023	3.39e5	inactive
73	to (GeneID 43036)	1				6462	3.81e5	inactive
74	Trs20 (GeneID 39769)	1				7294	2.51e5	inactive
75	Vap33 (GeneID 31349)	1				8929	5.99e5	inactive
76	aph-1 (GeneID 33467)	1				10687	4.13e5	inactive
77	fd3F (retired record) (GeneID 246673)	1				5443	2.82e5	inactive
78	fd3F (retired record) (GeneID 246673)	2				5003	2.83e5	inactive
79	CG9416 (GeneID 37223)	1				8262	5.33e5	inactive
80	Tmem43 (GeneID 38881)	1				6346	4.34e5	inactive
81	Dlc90F (GeneID 42199)	1				9578	3.45e5	inactive
82	CG13481 (GeneID 39579)	1				7893	4.07e5	inactive
83	CG43672 (GeneID 318910)	1				5188	4.03e5	inactive
84	CG43672 (GeneID 318910)	2				5567	3.43e5	inactive
85	CG13994 (GeneID 33853)	1				8088	4.05e5	inactive
86	CG30376 (GeneID 246576)	1				4619	3.75e5	inactive
87	CG15643 (GeneID 32489)	1				5604	4.85e5	inactive
88	Blimp-1 (GeneID 38638)	1				6086	3.86e5	inactive
89	CG9825 (GeneID 37624)	1				6611	3.95e5	inactive
90	Acp26Aa (GeneID 33817)	1				7486	3.53e5	inactive
91	app (GeneID 39399)	1				4934	2.98e5	inactive
92	app (GeneID 39399)	2				7063	4.42e5	inactive
93	app (GeneID 39399)	3				6612	4.03e5	inactive
94	CG12506 (GeneID 33249)	1				7895	4.79e5	inactive
95	Polr3K + Tcs1	1				5504	4.46e5	inactive
96	CG15422 (GeneID 33615)	1				7131	3.63e5	inactive
97	Pc (GeneID 40358)	1				7230	3.41e5	inactive
98	BomT2 (GeneID 50208)	1				6763	3.72e5	inactive
99	CG6729 (GeneID 34484)	1				9243	5.38e5	inactive
100	CG6729 (GeneID 34484)	2				3839	3.07e5	inactive
101	CG42268 (GeneID 39145)	1			reporter ratio lowered past the hit cutoff	5395	4.57e5	inactive
102	CG42268 (GeneID 39145)	2				6104	2.88e5	inactive
103	CG42268 (GeneID 39145)	3				8823	4.27e5	inactive
104	Polr2M (GeneID 42309)	1				8246	4.03e5	inactive
105	CG2681 (GeneID 31258)	1				6348	3.07e5	inactive
106	CG10486 (GeneID 38664)	1			reporter ratio raised past the hit cutoff	6315	3.78e5	inactive
